# Results of single-concentration screens

Source: ChEMBL document CHEMBL3988442, “University of Dundee, Small-Polar-MMV Screening Library” (2021).

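Phenotypic screen: M. tuberculosis growth, cholesterol and DPPC medium, 4 days; the read-out is not stated. Tested at 50 µM. Higher reads as more growth inhibition (inferred: compounds with an IC50 in retests scored well above the rest). Of about 69,000 compounds tested this way, about 370 (0.54%) reached 50% or more in at least one test.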

Each number is a percent effect as filed. The record does not define 0% and 100%; most values in the screen are far below 50% and negative numbers occur (in some assays of this library far below -100). The compounds are a random part of those screened. Two or more numbers in one place are separate tests of the same structure; such repeats can differ widely.

SMILES,Percent Effect
Cc1nn(C)c(C)c1C1CCCN1Cc1nc2ccccc2c(=O)[nH]1 (stereo not drawn),10.08
CN(Cc1nccn1C)C1CCCN(Cc2noc(C3CC3)n2)C1 (stereo not drawn),-31.46
CN1CCCCC1C(=O)N1CCN(c2ccccc2C#N)CC1 (stereo not drawn),-11.07
CCc1cc(C(=O)N2CCCC2c2nc(C)c(CC)c(O)n2)on1 (stereo not drawn),-13.85
CCN(CCNC(=O)C1CCN(C(C)=O)CC1)c1ccccc1C,10.41
O=C(c1ccc(O)nc1)N1CCc2ccc(O)cc2C1,-5.338
COCCOC[C@]1(CNCc2ccc(OC)cc2)C[C@@H](O)[C@@H](O)C1.Cl,-11.31
CN(Cc1cn(CC2CCNCC2)nn1)CC1CCCCO1 (stereo not drawn),-1.399
CCc1nc(C2CCCN(C(=O)c3c[nH]c(C(C)C)n3)C2)no1 (stereo not drawn),-0.1348
Cc1nc(-c2ccc(Cl)s2)sc1C(=O)O,-35.3
CC(C)COC(C)C(=O)NCc1ccc(F)cc1 (stereo not drawn),37.07
CCc1cnc(CNc2ccc(C(=O)N3CCCC(C)C3)cc2C)o1 (stereo not drawn),-7.762
Cc1cc(-c2cnc(NC3CCCC3)nc2-c2ccc(C)o2)on1,35.03
O=C(NCC(O)c1cccc(O)c1)C1CCN(C2CCCCC2)CC1 (stereo not drawn),8.811
CN(Cc1cnn(C)c1)C(=O)NC1CCN(Cc2ccccn2)CC1,-13.19
COc1ccc(F)cc1C(=O)N1CCCC(n2nc(C)nc2C)C1 (stereo not drawn),18.02
CCOCCC1(C(=O)N2CCCC(c3ncc[nH]3)C2)CCCC1 (stereo not drawn),22.78
Cc1nn(CCC#N)c(C)c1[C@@H]1C=C[C@@H](NCc2ccc(F)cc2)C1,20.18
COCc1nc(C(=O)N2CCN(c3nccc(OC)n3)CC2)cs1,6.636
Cc1nccnc1N1CC[C@@H](NC(=O)c2cnccn2)[C@H](O)C1,2.569
COc1ccc(CNc2c(C)cnc3c2c(=O)n(C)c(=O)n3C)cc1,-41.92
Cc1ccc(=O)n(CC2(O)CCN(Cc3c(F)cccc3F)CC2)n1,9.418
OCCn1nccc1C1CCN(CCOc2ccccc2)CC1,-20.97
CCC(CNC(=O)c1ccccc1OC)N1CCc2ccccc2C1 (stereo not drawn),-23.11
CCOCCCNC(=O)NC(C)c1ccc(-n2cncn2)cc1 (stereo not drawn),10.31
CCc1cnc(CNC(=O)NCCc2ccc(O)cc2)s1,21.41
Cc1nc(C2CCCN2C(=O)CCCn2cccn2)no1 (stereo not drawn),5.439
Nc1ncccc1CN1C[C@@H](C(=O)O)[C@H](c2cccc(F)c2)C1,-3.314
[H][C@@]12CCN(Cc3cnn(C)c3)C[C@@]1([H])O[C@@H](c1nc(C3CC3)cs1)C2,-11.32
O=C(NCCc1cc(F)ccc1F)NCC(O)C1CC1 (stereo not drawn),4.744 & -5.577
CNC(=O)C(C)(C)CNC(=O)Nc1ccc(C)cn1,8.318 & -3.607
Cc1ccc(C(=O)N2CCC(Oc3c(C)cccc3C)CC2)c(=O)[nH]1,7.209
O=c1c(Cc2ccccc2)c(O)ccn1Cc1ccco1,-33.94
O=C(Nc1cccc(-c2cscn2)c1)N1CCC2(CC1)CC(O)CO2 (stereo not drawn),-2.365
Cc1cc(C(=O)N(CC(=O)O)CC(C)C)ccc1F,-5.561
O=C1NCCN(CC2CC2)C12CCN(Cc1ccco1)CC2,-40.75
Cc1ncsc1CN(C)Cc1cc2c(cc1OC(F)F)OCO2,-14.68
O=C(O)C(F)(F)F.[H][C@@]12COC[C@]1(CN1CCOCC1)CN(S(C)(=O)=O)C2,-0.5292
CN(Cc1ccccc1)CC1(O)CCCN(Cc2ccc(F)cc2)C1=O (stereo not drawn),17.7
CN(C)Cc1nnc(C2CCCN(c3nccc4ccccc34)C2)n1C (stereo not drawn),17.33
Cc1ccccc1CC(C)(C)NC(=O)CCOc1cccc(C(N)=O)c1,3.011
Cc1noc(C)c1CS(=O)(=O)CC(=O)NCCc1cccs1,-8.855
O=C(NCCNc1ccccn1)N1CCSCC1,-20.66
CCOC(=O)CNC(=O)NCc1cc(C)n(-c2ccc(OC)cc2)c1C,-1.521
CCn1ccnc1CN1CCC(CNC(=O)c2ccc(C)nc2)C1 (stereo not drawn),-9.908
CC[C@H]1N(C)CCC[C@]12CCC(=O)N2Cc1ccncc1.O=C(O)C(F)(F)F.O=C(O)C(F)(F)F,-9.206
Cc1cc(C)n2nc(C(=O)N3CCCC4(CNC(=O)O4)C3)cc2n1 (stereo not drawn),-15.13
N#Cc1ccsc1C(=O)N1CCCCC1Cn1cccn1 (stereo not drawn),-10.2 & -29.86
CCc1nc(CN(CCc2ccccc2)C2CCN(C)CC2)no1,10.15
CC(C)OC(=O)[C@@H]1CCN(C(=O)c2ccccn2)[C@@H]1c1ccc(F)cc1,-15.36
[H][C@@]12COC[C@]1(c1nnc(C3CC3)o1)CN(C(=O)c1ncccn1)C2,-7.847
CC1CCCN(Cc2cccc(C(=O)Nc3nccs3)c2)C1 (stereo not drawn),3.184
CCN(C(C)c1cccc(O)c1)S(=O)(=O)c1cccnc1 (stereo not drawn),-5.882
O=c1cc(N2CCCC2)cnn1CCc1cccc(F)c1,-25.75
CCc1nc(CNCC2CCCN2c2cccnn2)no1 (stereo not drawn),6.182
CS(=O)(=O)N1CCc2[nH]cnc2C12CCN(C(=O)c1cccnc1)CC2,-4.15 & -11.82
Cc1nc2c(Nc3cccc(C#N)c3)nc(N)nc2n1C,87.03
Fc1cccnc1Oc1cc(F)c(CN2CCCC2)c(F)c1,-17.11
Cc1ccc2c(c1)SCC(=O)N2Cc1noc(C2CCCO2)n1 (stereo not drawn),-21.82
Cn1cc(Br)c(=O)c(NS(=O)(=O)c2ccc(Cl)cc2)c1,8.892
O=C(O)C(F)(F)F.[H][C@]12CCC[C@@H](CNc3nccn3C)[C@@]1([H])CN(Cc1cccnc1)C2,-18.58
Cn1cnnc1C1CCN(C(=O)c2cc3c(s2)CCCC3)CC1,9.146
Cc1ccc(C)c2c1NC(=O)C2CC(=O)O (stereo not drawn),-24.08

The last 5 entries again:

Result for Cc1ccc2c(c1)SCC(=O)N2Cc1noc(C2CCCO2)n1 (stereo not drawn) was -21.82%.
Result for Cn1cc(Br)c(=O)c(NS(=O)(=O)c2ccc(Cl)cc2)c1 was 8.892%.
Result for O=C(O)C(F)(F)F.[H][C@]12CCC[C@@H](CNc3nccn3C)[C@@]1([H])CN(Cc1cccnc1)C2 was -18.58%.
Result for Cn1cnnc1C1CCN(C(=O)c2cc3c(s2)CCCC3)CC1 was 9.146%.
Result for Cc1ccc(C)c2c1NC(=O)C2CC(=O)O (stereo not drawn) was -24.08%.